# PubChem BioAssay AID1259314, Drosophila RNAi Screening Center | 2017
# Assay: 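Transmembrane protein genes affecting ATP after manganese overload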 (primary screen)
# Cells: Drosophila S2R+ cells
# Reagents: long dsRNA against Drosophila genes
# Duration: 5 days (4 days knock-down, then 1 day metal exposure)
# Conditions: manganese chloride added to 15 mM for 24 hours
# Measurement: 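Luciferase ATP signal used as a proxy for viable cell number, reported as one averaged z-score per dsRNA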
# Reading the numbers: mean ATP z-score: higher = more ATP than the plate average, more viable cells under manganese
# Call rule: 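a mean ATP z-score past 1.5 in either direction is called active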
# Calls: active = strong ATP change, up or down; inactive = no strong ATP change
# Shown is an unselected part of about 3,100 reagents. In the full data, 289 (9.3%) got an active call. 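Active includes both higher and lower ATP than plate average; check the z-score sign for direction.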 Reagent sequences are not shown. Not stated in the record: the amount of reagent.
target gene,PubChem SID,mean ATP z-score,Call
CG30471,SID104186888,0.0507,inactive
CG4073,SID104195334,0.923,inactive
ND-MWFE (NADH dehydrogenase (ubiquinone) MWFE subunit),SID104186156,-0.0791,inactive
CG11601,SID104180110,-0.529,inactive
CG11601,SID104217210,1.2,inactive
COX7AL (Cytochrome c oxidase subunit 7A-like),SID104203744,-0.311,inactive
CG13654,SID104194446,-0.31,inactive
CG13654,SID104217463,0.0212,inactive
CG13575,SID104202210,-0.291,inactive
CG13575,SID104217099,0.663,inactive
tinc (tincar),SID104194591,-0.204,inactive
tinc (tincar),SID104196100,-0.384,inactive
Gr10b (Gustatory receptor 10b),SID104199269,-0.889,inactive
Gr10b (Gustatory receptor 10b),SID104207246,1.14,inactive
CG8468,SID104186982,0.0155,inactive
CG8468,SID104204891,1.36,inactive
CG6836,SID104190514,0.529,inactive
CG6836,SID104205450,0.0643,inactive
CG44153,SID104182020,0.312,inactive
CG44153,SID104182694,0.361,inactive
CG44153,SID104182695,-0.759,inactive
CG30265,SID104201299,1.1,inactive
Fs(2)Ket (Female sterile (2) Ketel),SID104183120,0.252,inactive
Fs(2)Ket (Female sterile (2) Ketel),SID104202737,-2.69,active
aralar1,SID104196693,-0.457,inactive
aralar1,SID104208237,-1.06,inactive
Abcd1 (ATP binding cassette subfamily D member 1),SID104196949,0.287,inactive
Abcd1 (ATP binding cassette subfamily D member 1),SID104217252,1.6,active
CG5906,SID104190349,-0.767,inactive
CG16700,SID104199547,-0.115,inactive
CG16700,SID104217135,-0.436,inactive
Nhe2 (Na[+]/H[+] hydrogen exchanger 2),SID104182964,-0.69,inactive
Nhe2 (Na[+]/H[+] hydrogen exchanger 2),SID104183169,-0.679,inactive
CG32547,SID104199055,-0.302,inactive
CG32547,SID104199266,1.53,active
Unc50 (Unc50 RNA binding protein),SID104196353,-0.779,inactive
Unc50 (Unc50 RNA binding protein),SID104207104,0.643,inactive
Osi16 (Osiris 16),SID104201108,-0.66,inactive
VGAT (Vesicular GABA Transporter),SID104186952,-0.405,inactive
Baldspot,SID104189463,-0.838,inactive
spdo (sanpodo),SID104193780,-1.38,inactive
spdo (sanpodo),SID104203087,-0.244,inactive
Rh6 (Rhodopsin 6),SID104196615,-0.574,inactive
Rh6 (Rhodopsin 6),SID104204710,-0.809,inactive
Fili (Fish-lips),SID104183699,0.407,inactive
Fili (Fish-lips),SID104183924,-2.25,active
Fili (Fish-lips),SID104184237,1.17,inactive
CG31272,SID104195850,0.303,inactive
CG31272,SID104215033,-0.63,inactive
CG15614,SID104186359,-0.434,inactive
Nup133 (Nucleoporin 133kD),SID104195942,0.107,inactive
Or24a (Odorant receptor 24a),SID104180560,0.0678,inactive
ORMDL (Orosomucoid 1-like),SID104206322,-0.325,inactive
Snmp2 (Sensory neuron membrane protein 2),SID104190020,0.648,inactive
Snmp2 (Sensory neuron membrane protein 2),SID104190635,0.39,inactive
ppk25 (pickpocket 25),SID104184765,0.22,inactive
ppk25 (pickpocket 25),SID104206057,-0.336,inactive
SPoCk (Secretory Pathway Calcium atpase),SID104191636,-0.727,inactive
SPoCk (Secretory Pathway Calcium atpase),SID104202986,-0.8,inactive
Ih (I[[h]] channel),SID104187237,-1.74,active
Ih (I[[h]] channel),SID104203412,0.89,inactive
CG12490,SID104183915,-1.05,inactive
CG13014,SID104199325,1.07,inactive
CG13014,SID104216574,0.27,inactive
CadN (Cadherin-N),SID104183078,-0.471,inactive
CadN (Cadherin-N),SID104205912,-0.904,inactive
Ent2 (Equilibrative nucleoside transporter 2),SID104207423,-1.48,inactive
Ent2 (Equilibrative nucleoside transporter 2),SID104217374,1.18,inactive
PIG-Wa (Phosphatidylinositol glycan anchor biosynthesis class W a),SID104180520,0.649,inactive
ppk12 (pickpocket 12),SID104183878,0.275,inactive
ppk12 (pickpocket 12),SID104217287,-0.468,inactive
CG8850,SID104187079,0.186,inactive
CG8850,SID104204509,0.991,inactive
CG11655,SID104199205,-1.15,inactive
ZnT41F (Zinc transporter 41F),SID104184642,0.216,inactive
